Data: paper PMC8745574
Results are given in words; binding and its absence hold for the method and conditions named. For some of these results: In cells and extracts the contact can be indirect. Some results given as binding are weak or reduced against the parent protein; the word gives no strength. For some of these results: Tags and fused reporters may be left off the sequences shown.

Protein sequences, listed by entry. Tags and fused reporters are not part of them.
UniProt Q94A52: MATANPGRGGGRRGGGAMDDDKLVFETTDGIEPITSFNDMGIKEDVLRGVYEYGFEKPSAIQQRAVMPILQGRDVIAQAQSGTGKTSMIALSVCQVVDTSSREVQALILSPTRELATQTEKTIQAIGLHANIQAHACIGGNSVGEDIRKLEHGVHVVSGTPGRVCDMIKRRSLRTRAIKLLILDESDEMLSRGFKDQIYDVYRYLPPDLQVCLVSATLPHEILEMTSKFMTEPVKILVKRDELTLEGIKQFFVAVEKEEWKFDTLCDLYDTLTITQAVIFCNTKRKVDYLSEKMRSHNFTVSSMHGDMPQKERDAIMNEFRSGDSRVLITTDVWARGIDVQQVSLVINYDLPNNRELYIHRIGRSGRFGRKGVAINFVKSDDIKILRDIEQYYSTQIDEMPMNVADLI
UniProt F4JL11: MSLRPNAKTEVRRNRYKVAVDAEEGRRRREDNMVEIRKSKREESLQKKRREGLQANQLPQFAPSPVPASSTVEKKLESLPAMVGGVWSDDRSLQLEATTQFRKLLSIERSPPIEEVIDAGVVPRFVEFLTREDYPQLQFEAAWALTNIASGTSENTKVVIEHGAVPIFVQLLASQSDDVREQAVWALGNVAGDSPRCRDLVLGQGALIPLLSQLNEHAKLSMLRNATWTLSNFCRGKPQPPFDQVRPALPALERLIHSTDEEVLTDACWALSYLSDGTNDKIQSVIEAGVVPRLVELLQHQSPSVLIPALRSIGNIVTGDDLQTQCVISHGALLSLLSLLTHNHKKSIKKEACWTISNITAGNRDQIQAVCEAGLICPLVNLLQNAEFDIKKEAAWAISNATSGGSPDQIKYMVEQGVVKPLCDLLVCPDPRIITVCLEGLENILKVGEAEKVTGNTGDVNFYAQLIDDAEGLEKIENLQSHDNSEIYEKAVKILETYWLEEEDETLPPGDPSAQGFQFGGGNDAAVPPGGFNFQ
UniProt O22467: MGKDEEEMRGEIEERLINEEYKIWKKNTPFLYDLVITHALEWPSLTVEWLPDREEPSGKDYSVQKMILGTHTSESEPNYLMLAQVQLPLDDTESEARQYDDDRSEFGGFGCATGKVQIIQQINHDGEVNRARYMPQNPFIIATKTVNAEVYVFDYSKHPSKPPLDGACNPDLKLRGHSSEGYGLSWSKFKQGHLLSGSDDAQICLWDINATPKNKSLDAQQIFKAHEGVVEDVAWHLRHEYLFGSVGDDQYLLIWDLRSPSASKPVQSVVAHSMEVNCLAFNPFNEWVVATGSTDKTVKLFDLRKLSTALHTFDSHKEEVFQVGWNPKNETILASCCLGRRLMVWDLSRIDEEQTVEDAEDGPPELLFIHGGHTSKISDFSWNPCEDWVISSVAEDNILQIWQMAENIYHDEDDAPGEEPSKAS
UniProt O04294: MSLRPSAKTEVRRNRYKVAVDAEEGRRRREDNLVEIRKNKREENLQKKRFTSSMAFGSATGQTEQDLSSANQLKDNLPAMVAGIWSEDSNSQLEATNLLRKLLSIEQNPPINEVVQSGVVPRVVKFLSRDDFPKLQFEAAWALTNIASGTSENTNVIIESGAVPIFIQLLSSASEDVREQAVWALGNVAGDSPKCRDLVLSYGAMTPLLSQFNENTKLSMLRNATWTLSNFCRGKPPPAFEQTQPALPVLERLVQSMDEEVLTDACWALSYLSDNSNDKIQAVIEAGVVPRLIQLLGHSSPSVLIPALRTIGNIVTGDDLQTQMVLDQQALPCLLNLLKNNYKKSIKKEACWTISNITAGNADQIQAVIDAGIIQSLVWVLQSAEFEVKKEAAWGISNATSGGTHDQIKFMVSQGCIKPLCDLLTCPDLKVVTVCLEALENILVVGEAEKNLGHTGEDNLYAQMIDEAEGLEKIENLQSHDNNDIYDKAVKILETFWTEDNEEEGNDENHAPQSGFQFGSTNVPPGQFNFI
UniProt Q9SZI2: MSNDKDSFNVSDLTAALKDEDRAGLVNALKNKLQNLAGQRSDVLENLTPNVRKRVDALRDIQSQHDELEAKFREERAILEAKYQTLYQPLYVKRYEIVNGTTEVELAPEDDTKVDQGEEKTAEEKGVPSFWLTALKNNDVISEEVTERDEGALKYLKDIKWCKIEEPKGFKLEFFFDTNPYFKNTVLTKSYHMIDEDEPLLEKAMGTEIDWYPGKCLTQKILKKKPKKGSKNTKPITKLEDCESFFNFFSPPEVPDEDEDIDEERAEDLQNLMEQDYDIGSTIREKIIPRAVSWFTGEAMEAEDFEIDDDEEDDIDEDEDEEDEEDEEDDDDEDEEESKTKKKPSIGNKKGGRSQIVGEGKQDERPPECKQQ
UniProt Q96321: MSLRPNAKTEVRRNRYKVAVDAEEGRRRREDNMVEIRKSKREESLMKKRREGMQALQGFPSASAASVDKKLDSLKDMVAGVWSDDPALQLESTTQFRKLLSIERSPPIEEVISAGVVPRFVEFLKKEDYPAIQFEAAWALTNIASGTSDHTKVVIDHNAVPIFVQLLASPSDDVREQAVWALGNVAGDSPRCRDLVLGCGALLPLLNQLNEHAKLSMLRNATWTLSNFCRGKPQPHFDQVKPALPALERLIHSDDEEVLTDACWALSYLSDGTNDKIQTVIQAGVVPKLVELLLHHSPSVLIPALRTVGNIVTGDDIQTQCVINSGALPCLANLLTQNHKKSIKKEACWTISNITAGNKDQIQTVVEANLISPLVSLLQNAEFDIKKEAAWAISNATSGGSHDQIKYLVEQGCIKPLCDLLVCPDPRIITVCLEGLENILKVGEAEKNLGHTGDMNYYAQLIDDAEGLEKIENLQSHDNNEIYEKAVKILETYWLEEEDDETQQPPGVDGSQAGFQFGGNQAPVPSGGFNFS
UniProt Q93ZV7: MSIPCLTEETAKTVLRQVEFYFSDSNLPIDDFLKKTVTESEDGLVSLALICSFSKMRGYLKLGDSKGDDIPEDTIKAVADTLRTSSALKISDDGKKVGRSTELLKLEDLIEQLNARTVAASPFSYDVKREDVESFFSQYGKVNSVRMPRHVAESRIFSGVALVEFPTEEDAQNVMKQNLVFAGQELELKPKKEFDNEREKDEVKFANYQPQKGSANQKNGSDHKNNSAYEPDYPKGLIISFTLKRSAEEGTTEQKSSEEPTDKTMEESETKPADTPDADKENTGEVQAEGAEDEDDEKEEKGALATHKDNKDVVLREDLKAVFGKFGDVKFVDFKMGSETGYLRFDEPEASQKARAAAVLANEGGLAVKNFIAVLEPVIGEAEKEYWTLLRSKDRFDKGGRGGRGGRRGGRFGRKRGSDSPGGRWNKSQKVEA
UniProt Q8H1G0: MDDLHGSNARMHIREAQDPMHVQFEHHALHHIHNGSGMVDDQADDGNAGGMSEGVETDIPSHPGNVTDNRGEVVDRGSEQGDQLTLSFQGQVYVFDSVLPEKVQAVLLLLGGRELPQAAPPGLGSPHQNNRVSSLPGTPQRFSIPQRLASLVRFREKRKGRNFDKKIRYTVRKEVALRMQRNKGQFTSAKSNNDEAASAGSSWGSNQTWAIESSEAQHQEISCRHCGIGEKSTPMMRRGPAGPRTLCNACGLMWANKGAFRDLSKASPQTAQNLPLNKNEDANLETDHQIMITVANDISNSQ
UniProt O80480: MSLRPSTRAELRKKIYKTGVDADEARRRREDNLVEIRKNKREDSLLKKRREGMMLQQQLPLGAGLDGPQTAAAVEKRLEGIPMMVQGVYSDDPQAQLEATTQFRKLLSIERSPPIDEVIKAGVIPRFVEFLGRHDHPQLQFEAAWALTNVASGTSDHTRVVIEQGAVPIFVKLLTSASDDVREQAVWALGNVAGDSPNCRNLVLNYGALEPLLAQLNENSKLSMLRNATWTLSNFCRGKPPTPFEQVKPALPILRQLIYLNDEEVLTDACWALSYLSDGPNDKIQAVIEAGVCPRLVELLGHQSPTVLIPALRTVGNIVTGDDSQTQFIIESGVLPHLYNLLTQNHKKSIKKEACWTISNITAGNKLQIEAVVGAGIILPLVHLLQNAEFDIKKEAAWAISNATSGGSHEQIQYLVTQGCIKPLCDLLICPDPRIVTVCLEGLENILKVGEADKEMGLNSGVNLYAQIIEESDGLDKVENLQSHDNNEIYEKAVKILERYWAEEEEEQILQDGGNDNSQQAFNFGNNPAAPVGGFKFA
UniProt Q94K07: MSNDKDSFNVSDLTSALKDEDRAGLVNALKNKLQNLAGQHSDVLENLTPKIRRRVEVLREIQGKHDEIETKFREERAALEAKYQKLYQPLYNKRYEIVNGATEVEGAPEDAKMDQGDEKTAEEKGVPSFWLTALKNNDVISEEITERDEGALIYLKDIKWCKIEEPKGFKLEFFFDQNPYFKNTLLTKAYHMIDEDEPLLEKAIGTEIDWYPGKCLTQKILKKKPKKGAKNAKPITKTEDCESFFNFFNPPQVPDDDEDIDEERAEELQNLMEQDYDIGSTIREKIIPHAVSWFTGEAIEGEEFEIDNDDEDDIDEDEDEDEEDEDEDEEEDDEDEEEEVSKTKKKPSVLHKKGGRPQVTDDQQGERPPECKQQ

Key:
[1] = biological target: T1, cYFP-RID (N. benthamiana) (Arabidopsis thaliana) (UniProt Q9SPU7); assay: split reporter; BiFC, nYFP/cYFP constructs (pE-SPYNE-GW, pE-SPYCE-GW, pC-SPYNE-GW) transiently expressed in N. benthamiana leaves, confocal microscopy after 3 days
T1 sequence: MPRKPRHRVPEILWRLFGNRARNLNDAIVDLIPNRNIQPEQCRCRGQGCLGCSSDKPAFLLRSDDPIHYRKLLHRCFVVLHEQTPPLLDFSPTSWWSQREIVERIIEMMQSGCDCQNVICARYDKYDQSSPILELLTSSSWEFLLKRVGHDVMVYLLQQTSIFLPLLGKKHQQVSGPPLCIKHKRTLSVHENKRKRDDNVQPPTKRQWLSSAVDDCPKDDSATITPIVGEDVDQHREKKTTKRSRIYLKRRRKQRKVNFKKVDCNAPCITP

[2] = biological target: T2, AtTERT TEN construct (1-233 aa) (Arabidopsis thaliana) (UniProt Q9SPU7); assay: two-hybrid; Matchmaker GAL4 system, pGADT7-DEST/pGBKT7-DEST, S. cerevisiae PJ69-4α, 30 °C; growth on -LWH plates (with increasing 3-aminotriazol) and -LWHAde plates
T2 sequence: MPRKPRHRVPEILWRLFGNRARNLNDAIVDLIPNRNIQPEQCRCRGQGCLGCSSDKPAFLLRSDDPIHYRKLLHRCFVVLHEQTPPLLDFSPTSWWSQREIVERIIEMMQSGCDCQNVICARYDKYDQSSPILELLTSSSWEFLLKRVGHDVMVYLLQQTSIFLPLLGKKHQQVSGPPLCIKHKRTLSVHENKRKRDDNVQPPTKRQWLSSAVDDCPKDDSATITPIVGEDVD

[3] = biological target: T3, AtTERT RID construct (1-271 aa) (Arabidopsis thaliana) (UniProt Q9SPU7); assay: as above
T3 sequence: T1 sequence

[4] = biological target: T4, POT1a (Arabidopsis thaliana) (UniProt Q56Y52); assay: as above
T4 sequence: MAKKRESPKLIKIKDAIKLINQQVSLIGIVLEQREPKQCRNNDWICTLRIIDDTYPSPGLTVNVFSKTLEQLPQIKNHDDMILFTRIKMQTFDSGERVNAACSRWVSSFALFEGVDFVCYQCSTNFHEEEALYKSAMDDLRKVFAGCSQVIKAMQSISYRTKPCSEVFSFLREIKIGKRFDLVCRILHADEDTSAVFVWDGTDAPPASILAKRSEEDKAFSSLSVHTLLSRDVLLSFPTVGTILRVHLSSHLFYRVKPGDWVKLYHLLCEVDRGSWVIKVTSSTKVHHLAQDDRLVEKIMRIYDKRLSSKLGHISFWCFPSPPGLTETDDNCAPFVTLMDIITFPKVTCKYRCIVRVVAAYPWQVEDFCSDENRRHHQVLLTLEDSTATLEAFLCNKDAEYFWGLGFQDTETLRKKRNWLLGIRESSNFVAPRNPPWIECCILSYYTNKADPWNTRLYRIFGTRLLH

[5] = biological target: T5, AtTERT Fw3NNLS construct (229-582 aa) (Arabidopsis thaliana) (UniProt Q9SPU7); assay: as above
T5 sequence: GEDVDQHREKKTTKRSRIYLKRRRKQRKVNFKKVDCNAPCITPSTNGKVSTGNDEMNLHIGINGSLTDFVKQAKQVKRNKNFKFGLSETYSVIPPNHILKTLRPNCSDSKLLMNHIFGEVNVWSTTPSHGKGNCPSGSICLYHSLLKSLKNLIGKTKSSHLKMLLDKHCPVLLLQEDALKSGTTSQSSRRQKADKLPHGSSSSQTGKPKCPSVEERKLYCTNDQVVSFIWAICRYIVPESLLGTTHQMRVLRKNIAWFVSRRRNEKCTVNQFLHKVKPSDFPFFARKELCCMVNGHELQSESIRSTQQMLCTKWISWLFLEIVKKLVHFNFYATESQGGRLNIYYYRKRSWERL

[6] = biological target: T6, cYFP-RID (Arabidopsis protoplasts) (Arabidopsis thaliana) (UniProt Q9SPU7); assay: split reporter; BiFC, pSAT1-nEYFP-C1/pSAT1-cEYFP-C1-B constructs in Arabidopsis protoplasts, confocal microscopy 16 h after transfection
T6 sequence: T1 sequence

Row | Substance | binding [2] | binding [3] | other results
1 | RH2 nYFP construct (N. benthamiana) (from UniProt Q94A52 1-408) |  |  | binding [1]: binds
2 | ImpA2 (from UniProt F4JL11 1-535) | binds | binds | 
3 | MSI1 (multicopy suppressor of IRA 1) (from UniProt O22467 1-424) |  |  | binding [4]: no binding
4 | nYFP-ImpA3 (from UniProt O04294 1-531) |  |  | binding [1]: binds
5 | RNA helicase 2 (RH2) (from UniProt Q94A52 1-408) |  | binds | 
6 | NAP1;1 (from UniProt Q9SZI2 1-372) |  | binds | binding [5]: binds
7 | nYFP-ImpA1 (from UniProt Q96321 1-532) |  |  | binding [1]: binds
8 | La1 (from UniProt Q93ZV7 1-433) |  |  | binding [4]: no binding
9 | ImpA1 (from UniProt Q96321 1-532) | binds | binds | 
10 | ZML2 (ZIM-LIKE 2) (from UniProt Q8H1G0 1-302) | binds |  | binding [4]: binds
11 | nYFP-ImpA2 (from UniProt F4JL11 1-535) |  |  | binding [1]: binds
12 | RH2 nYFP construct (protoplasts) (from UniProt Q94A52 1-408) |  |  | binding [6]: binds

Further lines, with some results ahead:

Row | binding [2] | binding [3] | Substance | other results
13 | binds | binds | ImpA4 (from UniProt O80480 1-538) | 
14 | binds | binds | ImpA3 (from UniProt O04294 1-531) | 
15 |  | binds | NAP1;3 (from UniProt Q94K07 1-374) | binding [5]: binds
